Source: PubChem BioAssay AID504764 (Drosophila RNAi Screening Center, 2011)
The screen tested about 22,000 reagents; shown is an unselected part of those that have a named target and a result. Of all reagents, 403 (1.9%) are marked active. 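Unnormalised raw counts per well; ratio z-scores behind the hit calls and whether each hit raises or lowers signal are not deposited.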 The numbers tell different reagents against one gene apart. Not stated in the record: the amount of reagent.

Purpose: 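Knock-downs that raise or lower a Notch target reporter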 (primary screen)
Cells: Drosophila Kc167 cells
Knock-down reagent: long dsRNA against Drosophila genes
Time to read-out: about 5 days (4 days dsRNA, then 24 h after transfection)
Treatment: transfection of constitutively active membrane-tethered Notch lacking the extracellular domain, read 24 h later
Detection: 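Light from a Notch-responsive E(spl)m3 luciferase reporter under active Notch, with control-promoter and no-Notch reporter wells to normalise; raw counts from paired wells a and b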
Direction: induced reporter light, run 1, well a and induced reporter light, run 1, well b: higher = more light from the Notch target reporter with active Notch; control promoter light, run 1, well a and control promoter light, run 1, well b: higher = more light from the viral control promoter (cell number, transfection, viability); uninduced reporter light, run 1, well a: higher = more light from the Notch target reporter without active Notch
Hit rule: 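Wells with low control signal or poorly matching duplicates excluded; duplicates averaged; per source plate, z beyond ±2 for induced/control log2 ratio or beyond ±1.8 for induced/uninduced marks a hit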
Calls: active = modifier hit (raised or lowered Notch signal); inactive = not a hit

| Target gene | reagent | induced reporter light, run 1, well a | induced reporter light, run 1, well b | control promoter light, run 1, well a | control promoter light, run 1, well b | uninduced reporter light, run 1, well a | Outcome |
| --- | --- | --- | --- | --- | --- | --- | --- |
| CG33303 | 1 | 1.45e5 | 1.65e5 | 71250 | 1.00e5 | 19465 | inactive |
| Dnali1 (Dynein axonemal light intermediate chain 1) | 1 | 1.51e5 | 1.41e5 | 92425 | 84170 | 10440 | inactive |
| Snmp2 (Sensory neuron membrane protein 2) | 1 | 2.83e5 | 2.57e5 | 4.13e5 | 3.43e5 | 17740 | inactive |
| Snmp2 (Sensory neuron membrane protein 2) | 2 | 2.79e5 | 2.12e5 | 3.30e5 | 2.52e5 | 12140 | inactive |
| CG12493 | 1 | 2.15e5 | 2.35e5 | 1.95e5 | 1.36e5 | 9335 | inactive |
| ND-51L1 (NADH dehydrogenase (ubiquinone) 51 kDa subunit-like 1) | 1 | 1.34e5 | 99100 | 1.21e5 | 1.13e5 | 12095 | inactive |
| MAPk-Ak2 (MAP kinase activated protein-kinase-2) | 1 | 1.27e5 | 1.59e5 | 2.17e5 | 2.92e5 | 10500 | inactive |
| Rbp1 (RNA-binding protein 1) | 1 | 1.61e5 | 1.71e5 | 86795 | 84345 | 10905 | inactive |
| CG14321 | 1 | 1.87e5 | 1.43e5 | 2.05e5 | 2.14e5 | 12320 | inactive |
| Deaf1 (Deformed epidermal autoregulatory factor-1) | 1 | 1.00e5 | 1.06e5 | 96340 | 1.01e5 | 6685 | inactive |
| Deaf1 (Deformed epidermal autoregulatory factor-1) | 2 | – | – | – | – | – | active |
| Rad51D (Rad51 recombinase D) | 1 | 1.39e5 | 1.70e5 | 2.25e5 | 1.82e5 | 13545 | inactive |
| Ppr-Y | 1 | 2.26e5 | 2.16e5 | 3.02e5 | 3.17e5 | 14855 | inactive |
| SIFa (SIFamide) | 1 | 1.49e5 | 1.35e5 | 1.51e5 | 1.63e5 | 10510 | inactive |
| Pgant1 (Polypeptide N-Acetylgalactosaminyltransferase 1) | 1 | 93845 | 1.05e5 | 1.20e5 | 98425 | 6855 | inactive |
| Nup75 (Nucleoporin 75kD) | 1 | 43890 | 53180 | 69445 | 86270 | 3670 | inactive |
| Lapsyn (Leucine-rich repeat activity-regulated protein at synapses) | 1 | 2.26e5 | 2.34e5 | 2.07e5 | 2.11e5 | 16900 | inactive |
| CG42490 (retired record) | 1 | 64615 | 72510 | 76010 | 67425 | 7065 | inactive |
| Nup205 (Nucleoporin 205kD) | 1 | 65835 | 85815 | 44925 | 23985 | 4420 | inactive |
| tzn (tenzing norgay) | 1 | 1.65e5 | 1.61e5 | 1.37e5 | 1.44e5 | 12610 | inactive |
| CG12307 | 1 | 1.67e5 | 1.69e5 | 93950 | 1.31e5 | 18075 | inactive |
| psidin (phagocyte signaling impaired) | 1 | 1.38e5 | 1.17e5 | 1.63e5 | 1.49e5 | 8415 | inactive |
| CG8613 | 1 | 1.88e5 | 1.54e5 | 1.96e5 | 1.64e5 | 13550 | inactive |
| CG30098 | 1 | 1.26e5 | 1.62e5 | 1.51e5 | 1.85e5 | 9160 | inactive |
| Reepl1 (Receptor accessory protein like 1) | 1 | 1.43e5 | 1.25e5 | 2.16e5 | 1.75e5 | 9195 | inactive |
| CG5961 | 1 | 1.52e5 | 1.98e5 | 1.31e5 | 1.14e5 | 10620 | inactive |
| kmr (kramer) | 1 | 1.80e5 | 1.46e5 | 2.51e5 | 2.02e5 | 15780 | inactive |
| kmr (kramer) | 2 | 1.83e5 | 1.71e5 | 1.93e5 | 1.85e5 | 16350 | inactive |
| kmr (kramer) | 3 | 2.97e5 | 2.53e5 | 3.35e5 | 3.24e5 | 20510 | inactive |
| kmr (kramer) | 4 | 1.01e5 | 92760 | 64230 | 53885 | 8185 | inactive |
| Qsox3 (Quiescin sulfhydryl oxidase 3) | 1 | 2.15e5 | 1.67e5 | 1.96e5 | 1.89e5 | 13800 | inactive |
| CG34149 | 1 | 1.89e5 | 1.65e5 | 2.37e5 | 2.10e5 | 15165 | inactive |
| CG13807 | 1 | 94705 | 1.09e5 | 1.87e5 | 1.54e5 | 7010 | inactive |
| fw (furrowed) | 1 | 1.26e5 | 1.34e5 | 1.89e5 | 2.34e5 | 8310 | inactive |
| CG14190 | 1 | 91805 | 1.19e5 | 1.12e5 | 1.02e5 | 12025 | inactive |
| CG34249 (retired record) | 1 | 1.26e5 | 1.38e5 | 2.18e5 | 2.39e5 | 13360 | inactive |
| CG8861 | 1 | 2.25e5 | 1.75e5 | 1.62e5 | 1.81e5 | 17135 | inactive |
| CG8861 | 2 | 83205 | 72000 | 73605 | 52195 | 4820 | inactive |
| mRpL17 (mitochondrial ribosomal protein L17) | 1 | 1.36e5 | 1.42e5 | 3.25e5 | 2.33e5 | 7878 | inactive |
| CG1582 | 1 | 2.30e5 | 2.69e5 | 3.67e5 | 3.18e5 | 18740 | inactive |
| CG7988 | 1 | 2.14e5 | 1.73e5 | 2.17e5 | 2.05e5 | 11315 | inactive |
| CG34417 | 1 | 75585 | 60480 | 68750 | 64170 | 5140 | inactive |
| CG34417 | 2 | 1.22e5 | 1.13e5 | 1.56e5 | 2.17e5 | 9728 | inactive |
| CG34417 | 3 | 1.57e5 | 1.67e5 | 2.11e5 | 1.85e5 | 12465 | inactive |
| Sur-8 | 1 | 1.62e5 | 1.97e5 | 1.74e5 | 2.06e5 | 16400 | inactive |
| CG13723 | 1 | 2.55e5 | 2.45e5 | 3.47e5 | 3.32e5 | 13085 | inactive |
| CG10494 | 1 | 2.29e5 | 2.50e5 | 2.15e5 | 2.52e5 | 20490 | inactive |
| CG10657 | 1 | 1.34e5 | 1.10e5 | 71460 | 43950 | 8665 | inactive |
| AstC-R1 (Allatostatin C receptor 1) | 1 | 2.33e5 | 2.08e5 | 2.87e5 | 2.48e5 | 11232 | inactive |
| CG18675 | 1 | 1.90e5 | 1.47e5 | 2.72e5 | 2.14e5 | 12150 | inactive |

Active calls, among the entries above:
| Target gene | reagent | induced reporter light, run 1, well a | induced reporter light, run 1, well b | control promoter light, run 1, well a | control promoter light, run 1, well b | uninduced reporter light, run 1, well a | Outcome |
| --- | --- | --- | --- | --- | --- | --- | --- |
| Deaf1 (Deformed epidermal autoregulatory factor-1) | 2 | – | – | – | – | – | active |
